This is an account of results in patent US20080242608A1.

Sequences of proteins named here, by UniProt entry; tags and fusion partners are left off.
UniProt O43524: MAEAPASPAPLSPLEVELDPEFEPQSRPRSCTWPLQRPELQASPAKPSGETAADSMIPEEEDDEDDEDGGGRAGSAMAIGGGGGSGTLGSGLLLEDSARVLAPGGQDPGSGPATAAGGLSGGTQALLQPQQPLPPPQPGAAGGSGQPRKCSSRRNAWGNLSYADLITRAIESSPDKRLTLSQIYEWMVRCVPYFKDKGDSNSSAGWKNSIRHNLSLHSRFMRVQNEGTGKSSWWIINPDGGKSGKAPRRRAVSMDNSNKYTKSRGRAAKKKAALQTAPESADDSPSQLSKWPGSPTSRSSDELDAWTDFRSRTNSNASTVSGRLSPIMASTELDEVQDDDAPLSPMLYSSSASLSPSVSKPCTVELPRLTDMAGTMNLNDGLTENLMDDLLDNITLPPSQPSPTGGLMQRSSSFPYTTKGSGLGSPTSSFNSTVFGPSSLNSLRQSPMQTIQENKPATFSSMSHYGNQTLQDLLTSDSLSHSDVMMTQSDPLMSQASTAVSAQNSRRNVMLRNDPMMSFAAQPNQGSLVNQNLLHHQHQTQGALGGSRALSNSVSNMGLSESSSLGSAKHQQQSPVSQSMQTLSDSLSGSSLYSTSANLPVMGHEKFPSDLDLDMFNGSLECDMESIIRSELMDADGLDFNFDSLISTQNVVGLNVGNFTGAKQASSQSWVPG
UniProt P31946: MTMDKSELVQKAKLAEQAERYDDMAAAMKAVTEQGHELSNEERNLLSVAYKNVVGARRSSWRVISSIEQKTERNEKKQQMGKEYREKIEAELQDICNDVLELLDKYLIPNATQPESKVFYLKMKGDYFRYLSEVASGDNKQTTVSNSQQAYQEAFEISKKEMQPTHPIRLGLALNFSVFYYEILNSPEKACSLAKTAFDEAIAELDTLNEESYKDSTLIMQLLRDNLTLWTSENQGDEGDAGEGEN

No constants are given. Whether binding was seen depends on the method and setting. In cells and extracts the contact can be indirect. Some entries that bind do so weakly or less than the wild type.

This assay addresses GFP-FOXO3 (UniProt O43524). The experiment in a line: co-IP from 293T lysates with GFP antibody, 14-3-3β immunoblot.

Take “14-3-3β (endogenous, 293T cells) (from UniProt P31946 1-246)”: the binding result is listed as “binds”.
